Data reported in paper PMC3486646.
No constants are given. Whether binding was seen depends on the method and setting. In cells and extracts the contact can be indirect. Here binding means that the protein was enriched with, or labelled near, the bait; the list need not be complete. For some assays here: No binding means not detected with the bait.

Protein sequences, listed by entry. Tags and fused reporters are not part of them.
UniProt P12504: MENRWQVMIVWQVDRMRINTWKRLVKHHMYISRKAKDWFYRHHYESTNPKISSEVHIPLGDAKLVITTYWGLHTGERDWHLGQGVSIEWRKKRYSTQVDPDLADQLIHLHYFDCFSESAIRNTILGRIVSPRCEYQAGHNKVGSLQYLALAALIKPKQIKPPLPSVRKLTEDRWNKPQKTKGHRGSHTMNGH
UniProt P12520: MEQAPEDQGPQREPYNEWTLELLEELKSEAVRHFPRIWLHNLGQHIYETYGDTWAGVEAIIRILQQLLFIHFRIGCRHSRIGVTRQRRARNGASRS

T1: Staufen1-TAP, O95793
T1 chain: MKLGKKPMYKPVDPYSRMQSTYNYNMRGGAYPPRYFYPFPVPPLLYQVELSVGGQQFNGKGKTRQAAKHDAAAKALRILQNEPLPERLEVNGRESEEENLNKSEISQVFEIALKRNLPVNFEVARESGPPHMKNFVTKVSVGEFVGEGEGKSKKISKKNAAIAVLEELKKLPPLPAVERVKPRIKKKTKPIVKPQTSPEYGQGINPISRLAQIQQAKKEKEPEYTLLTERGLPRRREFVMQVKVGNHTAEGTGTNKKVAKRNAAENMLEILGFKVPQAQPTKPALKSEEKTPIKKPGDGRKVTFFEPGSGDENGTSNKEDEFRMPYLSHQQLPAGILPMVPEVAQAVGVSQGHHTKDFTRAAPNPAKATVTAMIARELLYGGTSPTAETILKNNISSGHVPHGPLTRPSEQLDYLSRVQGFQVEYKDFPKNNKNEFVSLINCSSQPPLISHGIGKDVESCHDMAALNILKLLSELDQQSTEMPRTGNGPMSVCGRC


Columns and labels:
Staufen1-TAP [1] = target: Staufen1-TAP (UniProt O95793); test: affinity purification with mass spectrometry + pull-down; Staufen1-TAP eluates from HIV-1-expressing cells; mass spectrometry and/or western blotting
Staufen1-TAP, O95793 = target: T1, Staufen1-TAP, O95793; test: affinity purification with mass spectrometry; tandem affinity purification of Staufen1-TAP from lysates of stable 293T cells, mock or pNL4-3 transfected; eluates on SDS-PAGE, 23 gel slices, in gel trypsin digestion, LC-MS/MS; FDR less than 1%; settings: remark: other sources report otherwise
Staufen1-TAP [2] = target: Staufen1-TAP (UniProt O95793); test: as above

Row | Molecule | binding (Staufen1-TAP [2]) | binding (Staufen1-TAP [1]) | also measured
1 | Vif (from UniProt P12504 1-192) |  | no binding | 
2 | Vpr (from UniProt P12520 1-96) |  | no binding | 
3 | Calnexin, P27824 21-592 (protein) HDGHDDDVIDIEDDLDDVIEEVEDSKPDTTAPPSSPKVTYKAPVPTGEVYFADSFDRGTLSGWILSKAKKDDTDDEIAKYDGKWEVEEMKESKLPGDKGLVLMSRAKHHAISAKLNKPFLFDTKPLIVQYEVNFQNGIECGGAYVKLLSKTPELNLDQFHDKTPYTIMFGPDKCGEDYKLHFIFRHKNPKTGIYEEKHAKRPDADLKTYFTDKKTHLYTLILNPDNSFEILVDQSVVNSGNLLNDMTPPVNPSREIEDPEDRKPEDWDERPKIPDPEAVKPDDWDEDAPAKIPDEEATKPEGWLDDEPEYVPDPDAEKPEDWDEDMDGEWEAPQIANPRCESAPGCGVWQRPVIDNPNYKGKWKPPMIDNPSYQGIWKPRKIPNPDFFEDLEPFRMTPFSAIGLELWSMTSDIFFDNFIICADRRIVDDWANDGWGLKKAADGAAEPGVVGQMIEAAEERPWLWVVYILTVALPVFLVILFCCSGKKQTSGMEYKKTDAPQPDVKEEEEEKEEEKDKGDEEEEGEEKLEEKQKSDAEEDGGTVSQEEEDRKPKAEEDEILNRSPRNRKPRRE |  |  | binding (Staufen1-TAP, O95793): binds

More lines, main results first:

Row | binding (Staufen1-TAP [2]) | Molecule | binding (Staufen1-TAP [1]) | also measured
4 | binds | Upf3b (protein, UniProt Q9BZI7 1-483) MKEEKEHRPKEKRVTLLTPAGATGSGGGTSGDSSKGEDKQDRNKEKKEALSKVVIRRLPPTLTKEQLQEHLQPMPEHDYFEFFSNDTSLYPHMYARAYINFKNQEDIILFRDRFDGYVFLDNKGQEYPAIVEFAPFQKAAKKKTKKRDTKVGTIDDDPEYRKFLESYATDNEKMTSTPETLLEEIEAKNRELIAKKTTPLLSFLKNKQRMREEKREERRRREIERKRQREEERRKWKEEEKRKRKDIEKLKKIDRIPERDKLKDEPKIKVHRFLLQAVNQKNLLKKPEKGDEKELDKREKAKKLDKENLSDERASGQSCTLPKRSDSELKDEKPKRPEDESGRDYREREREYERDQERILRERERLKRQEEERRRQKERYEKEKTFKRKEEEMKKEKDTLRDKGKKAESTESIGSSEKTEKKEEVVKRDRIRNKDRPAMQLYQPGARSRNRLCPPDDSTKSGDSAAERKQESGISHRKEGGEE |  | 
5 | binds | Upf1 (Up-frameshift protein 1) (protein, UniProt Q92900 1-1129) MSVEAYGPSSQTLTFLDTEEAELLGADTQGSEFEFTDFTLPSQTQTPPGGPGGPGGGGAGGPGGAGAGAAAGQLDAQVGPEGILQNGAVDDSVAKTSQLLAELNFEEDEEDTYYTKDLPIHACSYCGIHDPACVVYCNTSKKWFCNGRGNTSGSHIVNHLVRAKCKEVTLHKDGPLGETVLECYNCGCRNVFLLGFIPAKADSVVVLLCRQPCASQSSLKDINWDSSQWQPLIQDRCFLSWLVKIPSEQEQLRARQITAQQINKLEELWKENPSATLEDLEKPGVDEEPQHVLLRYEDAYQYQNIFGPLVKLEADYDKKLKESQTQDNITVRWDLGLNKKRIAYFTLPKTDSGNEDLVIIWLRDMRLMQGDEICLRYKGDLAPLWKGIGHVIKVPDNYGDEIAIELRSSVGAPVEVTHNFQVDFVWKSTSFDRMQSALKTFAVDETSVSGYIYHKLLGHEVEDVIIKCQLPKRFTAQGLPDLNHSQVYAVKTVLQRPLSLIQGPPGTGKTVTSATIVYHLARQGNGPVLVCAPSNIAVDQLTEKIHQTGLKVVRLCAKSREAIDSPVSFLALHNQIRNMDSMPELQKLQQLKDETGELSSADEKRYRALKRTAERELLMNADVICCTCVGAGDPRLAKMQFRSILIDESTQATEPECMVPVVLGAKQLILVGDHCQLGPVVMCKKAAKAGLSQSLFERLVVLGIRPIRLQVQYRMHPALSAFPSNIFYEGSLQNGVTAADRVKKGFDFQWPQPDKPMFFYVTQGQEEIASSGTSYLNRTEAANVEKITTKLLKAGAKPDQIGIITPYEGQRSYLVQYMQFSGSLHTKLYQEVEIASVDAFQGREKDFIILSCVRANEHQGIGFLNDPRRLNVALTRARYGVIIVGNPKALSKQPLWNHLLNYYKEQKVLVEGPLNNLRESLMQFSKPRKLVNTINPGARFMTTAMYDAREAIIPGSVYDRSSQGRPSSMYFQTHDQIGMISAGPSHVAAMNIPIPFNLVMPPMPPPGYFGQANGPAAGRGTPKGKTGRGGRQKNRFGLPGPSQTNLPNSQASQDVASQPFSQGALTQGYISMSQPSQMSQPGLSQPELSQDSYLGDEFKSQIDVALSQDSTYQGERAYQHGGVTGLSQY |  | 
